Data from the primary screen of doi:10.1371/journal.pone.0140310, rounded.

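Human melanoma cell lines in 1,536-well plates were treated with two drugs together for 72 h, then fixed, stained and imaged. The read-out is cell count (nuclei) in % of the DMSO control; lower values mean stronger growth inhibition or killing. Every drug was used at one fixed concentration, the higher of two screened. These are primary screening values without error estimates.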 Only some of the drugs and lines screened are listed, without regard to their results.

Compounds and concentrations:
midostaurin (400 nM): CO[C@@H]1[C@H](N(C)C(=O)c2ccccc2)C[C@H]2O[C@]1(C)n1c3ccccc3c3c4c(c5c6ccccc6n2c5c31)C(=O)NC4
GW441756 (2000 nM): Cn1cc(/C=C2\C(=O)Nc3cccnc32)c2ccccc21
embelin (6000 nM): CCCCCCCCCCCC1=C(O)C(=O)C=C(O)C1=O
GW0742 (10000 nM): Cc1cc(SCc2sc(-c3ccc(C(F)(F)F)c(F)c3)nc2C)ccc1OCC(=O)O
temozolomide (10000 nM): Cn1nnc2c(C(N)=O)ncn2c1=O
pazopanib (2000 nM): Cc1ccc(Nc2nccc(N(C)c3ccc4c(C)n(C)nc4c3)n2)cc1S(N)(=O)=O
GSK650394 (800 nM): O=C(O)c1ccc(-c2c[nH]c3ncc(-c4ccccc4)cc23)cc1C1CCCC1
crizotinib (1000 nM): C[C@@H](Oc1cc(-c2cnn(C3CCNCC3)c2)cnc1N)c1c(Cl)ccc(F)c1Cl
veliparib (7000 nM): C[C@]1(c2nc3c(C(N)=O)cccc3[nH]2)CCCN1
vorinostat (400 nM): O=C(CCCCCCC(=O)Nc1ccccc1)NO
decitabine (500 nM): Nc1ncn([C@H]2C[C@H](O)[C@@H](CO)O2)c(=O)n1

* decitabine + GSK650394 | COLO 829: 80.0; COLO 800: 69.2; WM3619: 70.2; WM451Lu: 88.0; COLO 792: 72.7; C32: 83.9
* GW0742 + GSK650394 | COLO 829: 90.7; COLO 800: 96.4; WM3619: 93.9; WM451Lu: 85.7; COLO 792: 104; C32: 84.4
* temozolomide + pazopanib | COLO 829: 93.7; COLO 800: 113; WM3619: 78.5; WM451Lu: 85.3; COLO 792: 71.7; C32: 104
* GW0742 + midostaurin | COLO 829: 68.8; COLO 800: 45.0; WM3619: 66.4; WM451Lu: 44.3; COLO 792: 56.7; C32: 68.5
* decitabine + veliparib | COLO 829: 75.0; COLO 800: 39.3; WM3619: 58.9; WM451Lu: 83.1; COLO 792: 61.4; C32: 92.2
* decitabine + GW441756 | COLO 829: 43.7; COLO 800: 68.3; WM3619: 91.3; WM451Lu: 80.9; COLO 792: 82.1; C32: 108
* GSK650394 + vorinostat | COLO 829: 69.5; COLO 800: 56.1; WM3619: 65.6; WM451Lu: 76.7; COLO 792: 65.7; C32: 89.9
* decitabine + GW0742 | COLO 829: 82.8; COLO 800: 68.0; WM3619: 77.9; WM451Lu: 71.7; COLO 792: 90.2; C32: 81.1
* vorinostat + embelin | COLO 829: 80.5; COLO 800: 71.3; WM3619: 67.2; WM451Lu: 91.5; COLO 792: 66.0; C32: 103
* veliparib + vorinostat | COLO 829: 79.5; COLO 800: 31.3; WM3619: 69.8; WM451Lu: 80.3; COLO 792: 80.0; C32: 102
* GW441756 + crizotinib | COLO 829: 88.4; COLO 800: 106; WM3619: 90.3; WM451Lu: 91.2; COLO 792: 107; C32: 99.6
* veliparib + temozolomide | COLO 829: 74.8; COLO 800: 14.8; WM3619: 71.3; WM451Lu: 76.9; COLO 792: 55.4; C32: 66.7
* embelin + midostaurin | COLO 829: 85.3; COLO 800: 40.3; WM3619: 73.3; WM451Lu: 69.4; COLO 792: 52.1; C32: 69.9
* GSK650394 + crizotinib | COLO 829: 90.5; COLO 800: 77.6; WM3619: 97.2; WM451Lu: 88.0; COLO 792: 82.0; C32: 81.7
* veliparib + embelin | COLO 829: 65.2; COLO 800: 56.6; WM3619: 70.0; WM451Lu: 111; COLO 792: 64.8; C32: 85.4
* GSK650394 + pazopanib | COLO 829: 86.4; COLO 800: 96.8; WM3619: 71.5; WM451Lu: 91.7; COLO 792: 93.1; C32: 99.8
* GW441756 + veliparib | COLO 829: 56.2; COLO 800: 42.4; WM3619: 78.2; WM451Lu: 107; COLO 792: 103; C32: 80.2
* pazopanib + decitabine | COLO 829: 60.4; COLO 800: 102; WM3619: 103; WM451Lu: 82.5; COLO 792: 94.1; C32: 104
* GW441756 + GSK650394 | COLO 829: 89.6; COLO 800: 50.5; WM3619: 96.2; WM451Lu: 89.9; COLO 792: 89.8; C32: 90.7
* midostaurin + veliparib | COLO 829: 59.1; COLO 800: 43.6; WM3619: 56.0; WM451Lu: 83.4; COLO 792: 51.4; C32: 73.5
* pazopanib + embelin | COLO 829: 72.5; COLO 800: 203; WM3619: 82.3; WM451Lu: 72.0; COLO 792: 81.0; C32: 102
* GW441756 + pazopanib | COLO 829: 101; COLO 800: 77.6; WM3619: 82.2; WM451Lu: 111; COLO 792: 85.3; C32: 118
* embelin + GW0742 | COLO 829: 90.5; COLO 800: 113; WM3619: 62.2; WM451Lu: 96.0; COLO 792: 90.1; C32: 92.8
* crizotinib + vorinostat | COLO 829: 78.3; COLO 800: 63.6; WM3619: 79.0; WM451Lu: 81.1; COLO 792: 95.3; C32: 87.1
* veliparib + pazopanib | COLO 829: 59.9; COLO 800: 68.7; WM3619: 87.1; WM451Lu: 66.1; COLO 792: 63.8; C32: 102
* temozolomide + midostaurin | COLO 829: 81.5; COLO 800: 24.9; WM3619: 61.9; WM451Lu: 76.1; COLO 792: 53.8; C32: 64.5
* GSK650394 + embelin | COLO 829: 85.9; COLO 800: 63.8; WM3619: 67.5; WM451Lu: 80.9; COLO 792: 82.1; C32: 107
* crizotinib + midostaurin | COLO 829: 63.2; COLO 800: 14.5; WM3619: 60.4; WM451Lu: 85.7; COLO 792: 65.4; C32: 77.7
* crizotinib + embelin | COLO 829: 70.0; COLO 800: 79.8; WM3619: 62.5; WM451Lu: 84.3; COLO 792: 85.4; C32: 82.5
* crizotinib + temozolomide | COLO 829: 66.4; COLO 800: 82.3; WM3619: 67.5; WM451Lu: 76.6; COLO 792: 63.5; C32: 83.5
* embelin + decitabine | COLO 829: 45.1; COLO 800: 90.0; WM3619: 70.4; WM451Lu: 70.2; COLO 792: 60.2; C32: 98.9
* temozolomide + GW0742 | COLO 829: 87.8; COLO 800: 89.8; WM3619: 81.2; WM451Lu: 86.9; COLO 792: 103; C32: 119
* embelin + temozolomide | COLO 829: 70.7; COLO 800: 75.9; WM3619: 92.5; WM451Lu: 98.8; COLO 792: 73.1; C32: 107
* midostaurin + GSK650394 | COLO 829: 64.7; COLO 800: 45.2; WM3619: 74.1; WM451Lu: 86.9; COLO 792: 60.4; C32: 90.3
* GW0742 + vorinostat | COLO 829: 85.9; COLO 800: 124; WM3619: 64.7; WM451Lu: 87.0; COLO 792: 82.0; C32: 105
* GW0742 + pazopanib | COLO 829: 69.9; COLO 800: 147; WM3619: 98.1; WM451Lu: 95.3; COLO 792: 92.5; C32: 106
* crizotinib + decitabine | COLO 829: 71.1; COLO 800: 82.6; WM3619: 114; WM451Lu: 67.6; COLO 792: 59.0; C32: 104
* GW441756 + midostaurin | COLO 829: 82.7; COLO 800: 60.9; WM3619: 66.8; WM451Lu: 85.0; COLO 792: 70.4; C32: 99.3
* pazopanib + vorinostat | COLO 829: 76.2; COLO 800: 65.1; WM3619: 63.7; WM451Lu: 61.3; COLO 792: 98.7; C32: 99.9
* temozolomide + GW441756 | COLO 829: 99.0; COLO 800: 75.6; WM3619: 74.0; WM451Lu: 114; COLO 792: 77.8; C32: 110

For reference, 2 entries once more:

Combination,COLO 829,COLO 800,WM3619,WM451Lu,COLO 792,C32
decitabine + GW441756,43.7,68.3,91.3,80.9,82.1,108
GW441756 + GSK650394,89.6,50.5,96.2,89.9,89.8,90.7